Data reported in patent US6617430.
Results are given in words; binding and its absence hold for the method and conditions named. For part of these data: Binding seen in cells or lysates may run through a third protein. Some binding calls cover weakened binding; strength is not graded here. For part of these data: Sequences can lack the tags named with a protein.

Protein sequences, listed by entry. Tags and fused reporters are not part of them. Lines headed by an entry give the natural chain unless they say otherwise; changes in a name come on top.
UniProt P04386: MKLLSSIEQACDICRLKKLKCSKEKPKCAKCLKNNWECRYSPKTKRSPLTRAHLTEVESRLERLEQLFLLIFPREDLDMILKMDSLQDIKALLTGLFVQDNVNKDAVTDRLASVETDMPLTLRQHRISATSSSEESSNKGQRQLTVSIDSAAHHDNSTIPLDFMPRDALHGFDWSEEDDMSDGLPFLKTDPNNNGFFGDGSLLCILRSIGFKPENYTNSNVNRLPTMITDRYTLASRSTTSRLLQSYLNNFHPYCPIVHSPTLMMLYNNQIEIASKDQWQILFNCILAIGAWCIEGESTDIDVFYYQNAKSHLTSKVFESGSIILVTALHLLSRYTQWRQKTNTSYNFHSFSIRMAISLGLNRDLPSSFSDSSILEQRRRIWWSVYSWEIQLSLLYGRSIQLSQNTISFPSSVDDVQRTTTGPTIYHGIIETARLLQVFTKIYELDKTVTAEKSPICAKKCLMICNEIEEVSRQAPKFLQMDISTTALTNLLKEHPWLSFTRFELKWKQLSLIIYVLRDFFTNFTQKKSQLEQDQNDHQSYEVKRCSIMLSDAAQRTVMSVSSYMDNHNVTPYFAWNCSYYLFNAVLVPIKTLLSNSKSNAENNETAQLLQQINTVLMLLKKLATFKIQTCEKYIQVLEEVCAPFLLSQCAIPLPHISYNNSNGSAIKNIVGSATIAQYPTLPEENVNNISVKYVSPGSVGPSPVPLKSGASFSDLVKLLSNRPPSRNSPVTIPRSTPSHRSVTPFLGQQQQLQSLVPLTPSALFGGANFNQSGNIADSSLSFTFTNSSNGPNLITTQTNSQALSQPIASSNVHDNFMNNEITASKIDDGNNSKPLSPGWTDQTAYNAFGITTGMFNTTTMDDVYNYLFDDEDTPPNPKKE
UniProt Q99700: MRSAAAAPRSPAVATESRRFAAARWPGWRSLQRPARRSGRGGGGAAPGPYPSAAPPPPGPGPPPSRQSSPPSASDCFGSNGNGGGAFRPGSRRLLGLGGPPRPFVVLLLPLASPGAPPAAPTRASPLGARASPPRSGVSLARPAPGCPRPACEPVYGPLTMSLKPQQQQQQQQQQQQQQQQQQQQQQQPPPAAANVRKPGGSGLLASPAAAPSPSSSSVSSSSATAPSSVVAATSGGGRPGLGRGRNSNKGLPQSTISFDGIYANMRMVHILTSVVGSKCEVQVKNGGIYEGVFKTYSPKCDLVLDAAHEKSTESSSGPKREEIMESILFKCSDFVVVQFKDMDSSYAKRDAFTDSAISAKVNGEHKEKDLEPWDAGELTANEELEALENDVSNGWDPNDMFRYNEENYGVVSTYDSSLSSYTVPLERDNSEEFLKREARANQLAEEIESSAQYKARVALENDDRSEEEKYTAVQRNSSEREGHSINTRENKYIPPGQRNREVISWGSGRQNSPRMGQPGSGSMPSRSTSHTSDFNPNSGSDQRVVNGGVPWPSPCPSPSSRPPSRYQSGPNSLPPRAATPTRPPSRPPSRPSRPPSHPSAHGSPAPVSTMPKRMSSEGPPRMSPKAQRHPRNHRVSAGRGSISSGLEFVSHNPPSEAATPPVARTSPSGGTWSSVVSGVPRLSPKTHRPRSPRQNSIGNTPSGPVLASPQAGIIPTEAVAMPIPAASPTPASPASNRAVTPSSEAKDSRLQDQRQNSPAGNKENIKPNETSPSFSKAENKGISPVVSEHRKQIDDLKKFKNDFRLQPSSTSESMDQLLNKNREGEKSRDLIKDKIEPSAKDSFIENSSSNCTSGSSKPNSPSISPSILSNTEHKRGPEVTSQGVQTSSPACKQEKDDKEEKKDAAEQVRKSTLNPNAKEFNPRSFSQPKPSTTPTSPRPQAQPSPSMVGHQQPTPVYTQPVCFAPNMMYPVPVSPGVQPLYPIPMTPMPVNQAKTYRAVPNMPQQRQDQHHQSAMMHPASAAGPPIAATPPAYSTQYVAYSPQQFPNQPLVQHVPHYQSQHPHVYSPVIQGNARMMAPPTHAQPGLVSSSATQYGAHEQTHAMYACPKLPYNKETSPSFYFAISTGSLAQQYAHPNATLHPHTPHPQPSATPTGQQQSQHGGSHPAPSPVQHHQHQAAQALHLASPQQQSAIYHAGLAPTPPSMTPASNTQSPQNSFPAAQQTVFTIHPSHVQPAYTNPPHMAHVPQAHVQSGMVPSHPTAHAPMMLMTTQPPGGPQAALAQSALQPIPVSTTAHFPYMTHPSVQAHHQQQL

How the values were obtained:
[1] = biological target: full-length normal ataxin-2 containing 22 poly-glutamine residues, GAL4 binding domain fusion (human) (UniProt P04386+Q99700); test: yeast two-hybrid, beta-gal filter assay
[2] = biological target: C-terminal region of ataxin-2 protein (amino acids 811-1312) fused to the binding domain of GAL4 (human) (UniProt P04386+Q99700); test: yeast two-hybrid screen, beta-galactosidase filter assay
[3] = biological target: endogenous ataxin-2 of HTB10 cells (human) (UniProt Q99700); test: co-immunoprecipitation from HTB10 cell lysate with anti-A2BP antibody 1734-2, Western blot with anti-SCA2B

B1: ataxin-2 binding protein (A2BP), GAL4 activation domain fusion from the pGAD10 human adult brain cDNA library clone (protein, not shown: large carriers)
chain: MNCEREQLRGNQEAAAAPDTMAQPYASAQFAPPQNGIPAEYTAPHPHPAPEYTGQTTVPEHTLNLYPPAQTHSEQSPADTSAQTVSGTATQTDDAAPTDGQPQTQPSENTENKSQPKRLHVSNIPFRFRDPDLRQMFGQFGKILDVEIIFNERGSKGFGFVTFENSADADRAREKLHGTVVEGRKIEVNNATARVMTNKKTVNPYTNGWKLNPVVGAVYSPEFYAGTVLLCQANQEGSSMYSAPSSLVYTSAMPGFPYPAATAAAAYRGAHLRGRGRTVYNTFRAAAPPPPIPAYGGVVYPGWILWCRHLWWLCCIPLRPAYPCHCRCLQ
[1]
  binding: binds
[2]
  binding: binds

B2: endogenous ataxin-2 binding protein (A2BP) of HTB10 cells (protein)
chain: B1 chain
[3]
  binding: binds
